Hit rate of the full screen: of about 320,000 compounds, about 620 (0.19%) were called active. Inconclusive means that the source gave no clear call. Such entries were picked first, then a sample of the others. Calls come from the whole dose curve; as a rule, active = well fitted activation curve with a large enough effect; inconclusive = small, poorly fitted or top-dose-only effect; inactive = no such curve, though single readings can be large or run the other way. A potency beside an inconclusive call is a rough fit, not a confirmed value.
Assay: qHTS Assay for Identifying a Potential Treatment of Ataxia-Telangiectasia; note: nearly all actives have a fitted effect of over 45% in size
Details: […] A-T fibroblasts, KAP-1 phosphorylation AlphaLISA, neocarzinostatin DNA damage 30 min before lysis; series mostly up to 57.5 µM
Summary of the method: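 ATM-like activity read as KAP-1 phosphorylation via AlphaLISA donor/acceptor antibody pairs after lysis and 6 hr at 25C. Cells were ATM-null patient fibroblasts ([…], hTERT), dosed 60 min, then exposed to the DSB inducer NCS for 30 min.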
With `CCOC(=O)C1CCN(C(=O)Cn2nc(C)n3c(cc4cc(F)ccc43)c2=O)CC1` the Potency was “inactive”. For `O=C(NC1CCCc2c1cnn2-c1cc(F)cc(F)c1)c1cc[n+]([O-])cc1` (stereo not given), the Potency was inconclusive: 6.31 µM [activator, single point]. With `COC(=O)c1ccc(CSc2cc(C)c3ccccc3n2)o1` the Potency was active: 31.6 µM. For `Clc1ccccc1-c1ncc(-c2ccccc2)o1`, the Potency was inconclusive: 25.1 µM [activator, single point]. In the case of `CSCCNC(=O)c1ccc2nc(C3CCCCC3)oc2c1`, the Potency is reported as “inactive”. For `Cc1ccc(-c2cc3ccccc3nc2N2CCOCC2)cc1`, the Potency was inconclusive: 39.8 µM [activator, single point]. In the case of `Cc1ccc(C(=O)/C=C/C(=O)c2ccc(C)cc2)cc1`, the Potency is reported as active: 25.1 µM. For `COc1ccc2[nH]c3c(c2c1)CCN1C(=O)N([C@@H](C)C(=O)NCc2ccccc2)C(=O)[C@]31C`, the Potency was inconclusive: 28.2 µM [activator, single point]. With `Cn1c(C=O)c(C#Cc2ccccc2)c2ccccc21` the Potency was inconclusive: 39.8 µM [activator, partial curve]. For `CN(C)CC(C(=O)c1ccccc1)c1ccccc1` (stereo not given), the Potency was active: 31.6 µM. With `O=S(=O)(Nc1ccccc1OC(F)F)c1ccc(S(=O)(=O)N2CCCC2)cc1` the Potency was “inactive”. With `CCCCC1=CC2=C(c3ccco3)C(=O)C(C)(OC(=O)c3ccc(OC)cc3)C(=O)C2=CN1CC(C)C` (stereo not given) the Potency was inconclusive: 39.8 µM [activator, single point]. With `OC(CNCc1ccco1)COc1ccccc1` (stereo not given) the Potency was “inactive”. With `COc1nc(-c2ccccc2)cc(-c2ccccc2)n1` the Potency was inconclusive: 39.8 µM [activator, single point]. In the case of `Cc1cc(S(=O)(=O)Nc2cccnc2)c(C)s1`, the Potency is reported as “inactive”. For `O=C(CSc1n[nH]c(-c2ccncc2)n1)NC1CCS(=O)(=O)C1` (stereo not given), the Potency was inconclusive: 39.8 µM [activator, partial curve]. In the case of `CC(=O)c1ccc([N+](=O)[O-])c(CS(=O)(=O)c2ccc(Cl)cc2)c1`, the Potency is reported as inconclusive: 0.631 µM [activator, full curve, poor fit]. With `CC#CC[N+](C)(C)CCCCCCCCCC` the Potency was inconclusive: 31.6 µM [activator, partial curve, poor fit]. For `COc1cc(OC)cc(C(=O)O/N=C(\N)c2cccc(C)c2)c1`, the Potency was inconclusive: 25.1 µM [activator, partial curve]. For `CCOC(=O)c1c(C)[nH]c(C(=O)OCC(=O)N(CC(C)C)C2CCS(=O)(=O)C2)c1C` (stereo not given), the Potency was “inactive”. In the case of `CCn1nc(NC(=O)C(C)C)c2cc3cccc(C)c3nc21`, the Potency is reported as inconclusive: 39.8 µM [activator, single point]. For `COc1ccc(-c2cc(C(=O)OCC(=O)NC(C)(C)C)c3ccccc3n2)cc1`, the Potency was inconclusive: 5.62 µM [activator, full curve, poor fit]. In the case of `CC(CN1CCN(Cc2ccccc2)CC1)OC(=O)c1ccco1` (stereo not given), the Potency is reported as inconclusive: 39.8 µM [activator, single point]. With `CCN1CCN(c2oc(COc3ccc(Cl)cc3)nc2C#N)CC1` the Potency was inconclusive: 0.708 µM [activator, full curve, poor fit]. For `COc1ccc(Nc2ncnc3c2oc2ccccc23)cc1`, the Potency was “inactive”. With `COc1ccc(C(=O)N/N=C/C(Br)=C/c2ccccc2)cc1` the Potency was “inactive”. For `NC(=O)C1CCN(C(=O)CCn2c(=O)oc3ccccc32)CC1`, the Potency was “inactive”. For `CSCCC(NC(=O)c1ccccc1Br)C(=O)NCc1ccc(F)cc1` (stereo not given), the Potency was inconclusive: 0.355 µM [activator, full curve, poor fit]. In the case of `O=C1/C(=C/c2ccccn2)COc2ccccc21`, the Potency is reported as inconclusive: 8.91 µM [activator, partial curve]. With `COc1ccc(CCC(=O)NCCOc2ccc(Cl)cc2)cc1` the Potency was inconclusive: 28.2 µM [activator, single point]. For `Cc1ccc(N=Nc2c(C)[nH]n(-c3ccccc3)c2=O)c(C)c1`, the Potency was inconclusive: 39.8 µM [activator, single point]. In the case of `CC(C)(C)c1cc(-c2n[nH]c(=S)n2-c2ccccc2F)n[nH]1`, the Potency is reported as inconclusive: 0.631 µM [activator, full curve, poor fit]. For `Cc1ncc(C[n+]2csc(C)c2C)c(N)n1`, the Potency was “inactive”. With `CCOc1ccccc1NC(=O)c1nc(S(=O)(=O)Cc2ccccc2)ncc1Cl` the Potency was “inactive”. For `Cc1cccc(N(C(=O)c2snc(C(N)=O)c2N)C(C(=O)NCc2ccccc2)c2ccncc2)c1` (stereo not given), the Potency was “inactive”. For `Cc1ccc(S(=O)(=O)c2c(N)n(Cc3ccco3)c3nc4ccccc4nc23)cc1`, the Potency was active: 31.6 µM. With `CCC(C)Sc1ccc(-c2nc3cnccn3c2NC2CCCCC2)cc1` (stereo not given) the Potency was active: 22.4 µM. With `CCN(C(=O)c1cc2c(=O)n3ccccc3nc2n1CCCOC)C1CCCCC1` the Potency was active: 28.2 µM. In the case of `Cc1ccc2nc3c(cc(C(=O)NCCCn4ccnc4)n3C)c(=O)n2c1`, the Potency is reported as inconclusive: 39.8 µM [activator, partial curve]. In the case of `N#C/C(=C/c1ccc(N2CCOCC2)o1)c1ccc(Br)cc1`, the Potency is reported as inconclusive: 22.4 µM [activator, partial curve]. In the case of `Cc1ccc(/C=N/NC(=O)Cn2nnc(N)n2)cc1`, the Potency is reported as active: 25.1 µM. With `O=C(CCc1ccc(O)cc1)c1c(O)cc(O)cc1O` the Potency was active: 28.2 µM. With `COc1cccc(COC(=O)c2ccc(S(=O)(=O)N3CCC(C)CC3)cc2)c1OC` the Potency was “inactive”. In the case of `CN(C)Cc1cc2ccccc2c2c1COC2`, the Potency is reported as inconclusive: 39.8 µM [activator, single point]. For `Cc1c[nH]c2ccccc12`, the Potency was inconclusive: 35.5 µM [activator, single point]. In the case of `CCN(CC)C(=O)CSc1nc2ncccc2[nH]1`, the Potency is reported as inconclusive: 3.55 µM [activator, partial curve]. With `CCN(CC)C(=O)CN1C(=O)NC2(CCc3ccccc3C2)C1=O` (stereo not given) the Potency was inconclusive: 0.631 µM [activator, partial curve, poor fit]. In the case of `O=C(NC1CCS(=O)(=O)C1)/C(=C\c1ccco1)NC(=O)c1ccccc1` (stereo not given), the Potency is reported as inconclusive: 35.5 µM [activator, single point]. With `Nc1ccc(-c2nc3cc([N+](=O)[O-])ccc3o2)cc1` the Potency was active: 39.8 µM. In the case of `CCOC(=O)N1CCN(c2nc(N(c3ccccc3)c3ccccc3)nc(-n3ccnc3)n2)CC1`, the Potency is reported as active: 10 µM. For `Cc1ccc(/C=N/Nc2nc3ccccc3s2)o1`, the Potency was “inactive”. With `COCCNC(=O)c1c(N)n(-c2cccc(C)c2)c2nc3ccccc3nc12` the Potency was active: 3.55 µM. For `CCn1c(C)c(C(C)=O)c(NCc2ccccc2)nc1=S`, the Potency was inconclusive: 3.55 µM [activator, single point]. For `Cc1cc(C(=O)N/N=C/C=C/c2ccccc2[N+](=O)[O-])c(C)o1`, the Potency was inconclusive: 2.51 µM [activator, partial curve]. For `O=C(O)Cc1coc2ccc3ccccc3c12`, the Potency was “inactive”. In the case of `O=C(CCC(=O)Nc1ccc(Cl)cc1)N/N=C/c1ccc2c(c1)OCO2`, the Potency is reported as inconclusive: 10 µM [activator, partial curve]. In the case of `Cc1ccc(S(=O)(=O)N[C@@H](Cc2ccccc2)C(=O)CCl)cc1`, the Potency is reported as “inactive”. In the case of `O=C1CCC/C1=C/Nc1ccc2c(c1)OCO2`, the Potency is reported as “inactive”. For `Cc1cc(C#Cc2c(-c3ccccc3)n(C)c3ccccc23)ccc1F`, the Potency was inconclusive: 39.8 µM [activator, single point]. In the case of `FC(F)(F)Sc1ccc(NC(=S)NCc2ccccc2)cc1`, the Potency is reported as inconclusive: 39.8 µM [activator, single point]. For `Cc1nnnn1/C(=C\c1ccccc1)C(=O)OCC(=O)NC1CCCCC1`, the Potency was inconclusive: 17.8 µM [activator, partial curve]. In the case of `Cc1nc(NC(=O)c2ccc(Cl)cc2)sc1Cc1ccc2c(c1)OCO2`, the Potency is reported as “inactive”. For `COc1ccc(C(=O)/C=C/C(=O)N(CC(=O)NC2CCCCC2)CC2CCCO2)c(O)c1` (stereo not given), the Potency was inconclusive: 7.08 µM [activator, single point]. With `CCOC(=O)N1C(=O)[C@@](c2ccc(Cl)cc2)(C(C)C)N1C(=O)OCC` the Potency was active: 20 µM. In the case of `O=C(Nc1ccc(Cc2ccncc2)cc1)c1cccc([N+](=O)[O-])c1`, the Potency is reported as inconclusive: 3.16 µM [activator, partial curve]. For `C=CCn1c2ccccc2c(=O)c2cc(C#CC3(O)CCCCC3)ccc21`, the Potency was active: 25.1 µM. In the case of `COCCNC(=S)NCCCNc1nc2cc3c(cc2cc1C#N)OCO3`, the Potency is reported as inconclusive: 39.8 µM [activator, partial curve]. With `CCOc1cccc(-c2nnc(SCC(=O)Nc3cc(C)ccc3OC)n2N)c1` the Potency was inconclusive: 1.78 µM [activator, partial curve]. With `Cn1c(=O)c(=O)n(C)c2cc(S(=O)(=O)N3CCC(Cc4ccccc4)CC3)ccc21` the Potency was “inactive”. For `COc1ccc(CCn2c(N)c(C(=O)NCc3ccco3)c3nc4ccccc4nc32)cc1`, the Potency was inconclusive: 39.8 µM [activator, single point]. In the case of `Cc1ccn2c(NC3CCCCC3)c(-c3cccc(-c4cccc(Cl)c4)c3)nc2c1`, the Potency is reported as active: 25.1 µM. For `CCS(=O)(=O)N1Cc2ccccc2CC1C(=O)Nc1cccc(OC)c1` (stereo not given), the Potency was inconclusive: 4.47 µM [activator, partial curve]. With `CCOC(=O)c1ccc(NC(=O)N2CCN(Cc3cccc(F)c3)CC2)cc1` the Potency was “inactive”. With `COC(=O)c1c(-c2ccc(OC)cc2)sc2ccccc12` the Potency was inconclusive: 39.8 µM [activator, partial curve]. In the case of `Cc1cc(=O)n(Cc2ccccc2)c2c(C)cccc12`, the Potency is reported as inconclusive: 31.6 µM [activator, single point].

From PubChem BioAssay AID485349 (National Center for Advancing Translational Sciences (NCATS), 2010)
Potency is the fitted concentration of half-maximal effect.
